Some of the results follow.
Key:
Assay in all cases: log2 fold change, soluble protein after heating vs DMSO (PISA); higher = thermal stabilisation; K562 cells, 10 uM, 30 min; active = over 0.2 and 3.5 SD of the protein, either way, in both replicates (recomputed)
[1] = compound: NC(=O)Nc1cc(-c2cccc(F)c2)sc1C(=O)N[C@H]1CCCNC1
Method in brief: (§1)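 K562 cells at 2×10^6 cells/mL were treated with 10 μM compound for 30 min. Aliquots were heated for 3 min across 48°C-58°C, pooled, and extracted in PBS with 0.5% NP-40 at 4°C; soluble protein was the supernatant after 21,000xg for 90 min. Soluble protein was quantified by TMTpro 16plex LC-MS/MS with channel sums equalised, and reported as log2 fold change in thermal stability against DMSO controls, with values from duplicates.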

Amino acid sequences for entries named in this document (tags omitted). A change or cut given only in a name is not applied to a line headed by its entry.
UniProt Q14657: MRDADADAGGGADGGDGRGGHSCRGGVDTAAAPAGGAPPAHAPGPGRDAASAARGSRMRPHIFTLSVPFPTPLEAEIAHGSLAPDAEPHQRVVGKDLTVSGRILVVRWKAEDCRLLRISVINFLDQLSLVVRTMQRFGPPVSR
UniProt Q9H0V9: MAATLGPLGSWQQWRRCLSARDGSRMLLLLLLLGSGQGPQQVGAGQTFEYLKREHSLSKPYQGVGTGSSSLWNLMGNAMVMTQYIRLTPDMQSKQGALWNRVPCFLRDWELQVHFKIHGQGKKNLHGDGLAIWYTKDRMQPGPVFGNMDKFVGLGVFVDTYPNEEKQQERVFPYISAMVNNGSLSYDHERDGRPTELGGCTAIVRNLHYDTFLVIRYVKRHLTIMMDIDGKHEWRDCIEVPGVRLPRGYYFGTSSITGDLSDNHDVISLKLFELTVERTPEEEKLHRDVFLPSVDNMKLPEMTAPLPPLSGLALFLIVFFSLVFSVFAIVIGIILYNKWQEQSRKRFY
UniProt P83111: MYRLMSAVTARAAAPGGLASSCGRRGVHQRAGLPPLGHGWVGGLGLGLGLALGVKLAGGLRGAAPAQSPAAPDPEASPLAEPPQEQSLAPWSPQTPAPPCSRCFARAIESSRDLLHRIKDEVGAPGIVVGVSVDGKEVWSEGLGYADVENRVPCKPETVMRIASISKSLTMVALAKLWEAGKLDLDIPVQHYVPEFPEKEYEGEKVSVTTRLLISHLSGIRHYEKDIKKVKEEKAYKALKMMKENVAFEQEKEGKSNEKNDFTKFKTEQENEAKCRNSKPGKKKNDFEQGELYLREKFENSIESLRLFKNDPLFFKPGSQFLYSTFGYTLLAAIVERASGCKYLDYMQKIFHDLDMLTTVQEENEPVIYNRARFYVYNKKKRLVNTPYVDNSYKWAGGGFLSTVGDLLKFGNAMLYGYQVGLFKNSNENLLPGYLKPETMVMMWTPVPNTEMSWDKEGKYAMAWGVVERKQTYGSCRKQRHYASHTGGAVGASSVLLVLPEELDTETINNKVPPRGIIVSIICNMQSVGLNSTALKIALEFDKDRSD
UniProt P13796: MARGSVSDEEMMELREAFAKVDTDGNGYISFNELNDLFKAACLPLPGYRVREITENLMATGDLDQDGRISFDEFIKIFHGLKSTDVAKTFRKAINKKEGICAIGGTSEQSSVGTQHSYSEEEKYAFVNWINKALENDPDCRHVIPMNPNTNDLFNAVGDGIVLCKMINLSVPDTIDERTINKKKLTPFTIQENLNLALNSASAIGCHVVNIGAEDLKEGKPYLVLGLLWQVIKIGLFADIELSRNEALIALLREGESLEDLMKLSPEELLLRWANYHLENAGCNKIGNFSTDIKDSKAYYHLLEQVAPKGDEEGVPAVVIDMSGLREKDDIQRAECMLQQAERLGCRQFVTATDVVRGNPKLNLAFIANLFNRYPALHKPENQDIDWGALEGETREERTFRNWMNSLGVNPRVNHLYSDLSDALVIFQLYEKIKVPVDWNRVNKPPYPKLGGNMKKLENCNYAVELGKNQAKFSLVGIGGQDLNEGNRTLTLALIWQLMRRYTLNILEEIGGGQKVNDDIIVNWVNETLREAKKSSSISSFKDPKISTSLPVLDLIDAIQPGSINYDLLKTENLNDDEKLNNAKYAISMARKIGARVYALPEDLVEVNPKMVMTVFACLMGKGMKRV
UniProt Q53H82: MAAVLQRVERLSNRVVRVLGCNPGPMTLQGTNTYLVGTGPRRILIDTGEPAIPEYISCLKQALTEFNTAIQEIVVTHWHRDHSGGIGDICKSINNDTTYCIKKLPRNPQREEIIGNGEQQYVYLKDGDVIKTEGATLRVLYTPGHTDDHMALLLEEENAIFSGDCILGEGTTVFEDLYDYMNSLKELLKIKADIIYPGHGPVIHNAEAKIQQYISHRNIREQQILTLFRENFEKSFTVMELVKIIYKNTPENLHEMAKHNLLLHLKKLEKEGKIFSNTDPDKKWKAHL
UniProt Q9H008: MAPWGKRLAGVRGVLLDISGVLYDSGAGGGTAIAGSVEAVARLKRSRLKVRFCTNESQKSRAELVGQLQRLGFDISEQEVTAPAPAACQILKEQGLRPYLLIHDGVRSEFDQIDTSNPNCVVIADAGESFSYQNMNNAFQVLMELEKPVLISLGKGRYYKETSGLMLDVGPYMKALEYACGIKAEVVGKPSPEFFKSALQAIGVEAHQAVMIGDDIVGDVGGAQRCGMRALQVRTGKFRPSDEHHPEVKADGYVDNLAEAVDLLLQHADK
UniProt Q15031: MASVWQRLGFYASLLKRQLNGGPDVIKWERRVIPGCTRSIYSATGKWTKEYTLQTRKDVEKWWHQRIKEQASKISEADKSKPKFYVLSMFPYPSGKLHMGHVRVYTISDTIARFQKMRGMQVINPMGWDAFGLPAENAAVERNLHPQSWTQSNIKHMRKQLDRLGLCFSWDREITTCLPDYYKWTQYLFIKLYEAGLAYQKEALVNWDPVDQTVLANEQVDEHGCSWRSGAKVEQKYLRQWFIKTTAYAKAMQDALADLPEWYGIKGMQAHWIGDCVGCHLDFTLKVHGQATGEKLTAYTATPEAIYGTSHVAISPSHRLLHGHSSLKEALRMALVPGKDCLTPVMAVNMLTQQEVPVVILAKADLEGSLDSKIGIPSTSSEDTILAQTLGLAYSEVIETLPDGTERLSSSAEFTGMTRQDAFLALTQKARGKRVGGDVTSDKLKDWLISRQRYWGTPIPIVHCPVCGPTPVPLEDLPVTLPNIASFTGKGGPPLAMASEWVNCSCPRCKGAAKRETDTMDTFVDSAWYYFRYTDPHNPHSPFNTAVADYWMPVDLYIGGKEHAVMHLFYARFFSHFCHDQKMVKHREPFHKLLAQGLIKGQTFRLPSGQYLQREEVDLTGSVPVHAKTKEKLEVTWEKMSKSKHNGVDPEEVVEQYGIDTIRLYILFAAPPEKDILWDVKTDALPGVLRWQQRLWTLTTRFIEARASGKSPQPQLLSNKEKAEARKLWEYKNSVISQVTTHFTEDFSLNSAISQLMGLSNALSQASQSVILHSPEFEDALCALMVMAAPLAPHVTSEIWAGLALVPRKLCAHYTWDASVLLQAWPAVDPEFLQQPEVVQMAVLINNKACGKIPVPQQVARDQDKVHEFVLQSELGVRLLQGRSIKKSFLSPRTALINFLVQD
UniProt Q96EM0: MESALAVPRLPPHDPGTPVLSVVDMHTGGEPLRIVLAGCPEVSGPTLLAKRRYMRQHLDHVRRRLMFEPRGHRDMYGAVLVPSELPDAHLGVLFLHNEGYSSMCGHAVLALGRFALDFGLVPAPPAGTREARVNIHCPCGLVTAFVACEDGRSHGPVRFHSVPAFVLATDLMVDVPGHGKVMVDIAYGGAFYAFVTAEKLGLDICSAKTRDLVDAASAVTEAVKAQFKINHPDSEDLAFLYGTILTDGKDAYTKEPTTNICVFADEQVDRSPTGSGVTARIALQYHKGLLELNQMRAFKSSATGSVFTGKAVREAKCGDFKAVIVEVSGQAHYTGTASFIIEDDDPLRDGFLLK
UniProt Q6IAA8, whole entry, looked up: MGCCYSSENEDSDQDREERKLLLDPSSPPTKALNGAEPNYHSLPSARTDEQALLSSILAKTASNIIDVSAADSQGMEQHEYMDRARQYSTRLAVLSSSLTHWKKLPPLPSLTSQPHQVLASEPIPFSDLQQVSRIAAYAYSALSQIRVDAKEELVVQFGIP
UniProt Q12907: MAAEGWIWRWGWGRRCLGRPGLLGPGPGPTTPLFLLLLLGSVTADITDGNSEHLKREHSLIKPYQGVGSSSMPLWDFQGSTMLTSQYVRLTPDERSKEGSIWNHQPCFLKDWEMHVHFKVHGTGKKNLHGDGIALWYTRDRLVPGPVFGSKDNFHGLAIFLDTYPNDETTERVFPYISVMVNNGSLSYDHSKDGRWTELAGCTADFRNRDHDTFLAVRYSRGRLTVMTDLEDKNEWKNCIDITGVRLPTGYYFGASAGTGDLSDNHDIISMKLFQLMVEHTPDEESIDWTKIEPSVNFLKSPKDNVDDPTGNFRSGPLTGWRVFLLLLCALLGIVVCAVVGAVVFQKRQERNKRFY
UniProt P48059, whole entry, looked up: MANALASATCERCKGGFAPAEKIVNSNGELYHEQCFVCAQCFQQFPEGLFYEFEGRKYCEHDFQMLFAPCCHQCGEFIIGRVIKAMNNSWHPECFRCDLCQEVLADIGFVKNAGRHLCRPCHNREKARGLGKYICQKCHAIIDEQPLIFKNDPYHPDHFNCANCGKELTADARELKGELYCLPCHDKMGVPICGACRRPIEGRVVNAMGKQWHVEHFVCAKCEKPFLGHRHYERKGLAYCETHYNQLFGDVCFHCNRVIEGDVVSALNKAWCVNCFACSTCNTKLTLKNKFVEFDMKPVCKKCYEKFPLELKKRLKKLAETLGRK
UniProt Q7L5N7: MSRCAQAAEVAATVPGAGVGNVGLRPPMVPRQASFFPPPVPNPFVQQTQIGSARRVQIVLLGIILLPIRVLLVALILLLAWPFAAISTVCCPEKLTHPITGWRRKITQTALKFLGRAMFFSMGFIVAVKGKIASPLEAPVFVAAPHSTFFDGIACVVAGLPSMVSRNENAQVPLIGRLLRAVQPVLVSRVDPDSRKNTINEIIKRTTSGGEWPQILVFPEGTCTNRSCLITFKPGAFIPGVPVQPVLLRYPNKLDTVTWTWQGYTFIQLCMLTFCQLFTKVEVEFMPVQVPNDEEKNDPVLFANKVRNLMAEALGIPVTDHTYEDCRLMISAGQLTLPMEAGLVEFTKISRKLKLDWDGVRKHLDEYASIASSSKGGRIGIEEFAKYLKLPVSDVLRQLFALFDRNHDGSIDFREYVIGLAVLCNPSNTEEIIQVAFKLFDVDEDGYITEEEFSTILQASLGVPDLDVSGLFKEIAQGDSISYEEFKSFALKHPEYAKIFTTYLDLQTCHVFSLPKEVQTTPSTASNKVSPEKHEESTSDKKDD
UniProt Q8N9N7: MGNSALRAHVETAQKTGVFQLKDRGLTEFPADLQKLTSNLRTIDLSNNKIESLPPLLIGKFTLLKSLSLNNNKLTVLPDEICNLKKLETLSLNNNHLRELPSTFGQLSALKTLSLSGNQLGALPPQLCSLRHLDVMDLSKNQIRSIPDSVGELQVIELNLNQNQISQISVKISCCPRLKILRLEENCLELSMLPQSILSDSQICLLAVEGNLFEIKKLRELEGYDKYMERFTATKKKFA
UniProt P25791: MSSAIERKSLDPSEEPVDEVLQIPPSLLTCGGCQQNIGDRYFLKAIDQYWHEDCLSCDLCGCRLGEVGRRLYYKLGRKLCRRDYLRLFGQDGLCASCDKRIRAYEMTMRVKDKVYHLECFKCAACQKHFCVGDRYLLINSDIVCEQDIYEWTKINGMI
UniProt Q9NUP9: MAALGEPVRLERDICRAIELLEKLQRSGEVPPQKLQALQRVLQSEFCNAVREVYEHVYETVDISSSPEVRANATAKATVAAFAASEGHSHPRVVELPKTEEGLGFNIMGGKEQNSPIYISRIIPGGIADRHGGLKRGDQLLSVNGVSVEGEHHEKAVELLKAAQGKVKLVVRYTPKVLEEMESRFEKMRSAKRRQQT
UniProt Q9UHA4, whole entry, looked up: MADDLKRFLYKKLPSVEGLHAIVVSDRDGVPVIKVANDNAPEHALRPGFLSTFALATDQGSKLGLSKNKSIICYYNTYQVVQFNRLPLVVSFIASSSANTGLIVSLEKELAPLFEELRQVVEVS
UniProt A6NK58: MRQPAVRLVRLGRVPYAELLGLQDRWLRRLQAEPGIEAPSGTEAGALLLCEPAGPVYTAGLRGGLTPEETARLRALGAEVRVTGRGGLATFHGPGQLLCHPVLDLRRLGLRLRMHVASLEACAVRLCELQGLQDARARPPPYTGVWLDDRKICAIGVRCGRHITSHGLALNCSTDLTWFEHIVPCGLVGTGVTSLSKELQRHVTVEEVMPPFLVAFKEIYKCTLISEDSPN
UniProt Q7Z4F1: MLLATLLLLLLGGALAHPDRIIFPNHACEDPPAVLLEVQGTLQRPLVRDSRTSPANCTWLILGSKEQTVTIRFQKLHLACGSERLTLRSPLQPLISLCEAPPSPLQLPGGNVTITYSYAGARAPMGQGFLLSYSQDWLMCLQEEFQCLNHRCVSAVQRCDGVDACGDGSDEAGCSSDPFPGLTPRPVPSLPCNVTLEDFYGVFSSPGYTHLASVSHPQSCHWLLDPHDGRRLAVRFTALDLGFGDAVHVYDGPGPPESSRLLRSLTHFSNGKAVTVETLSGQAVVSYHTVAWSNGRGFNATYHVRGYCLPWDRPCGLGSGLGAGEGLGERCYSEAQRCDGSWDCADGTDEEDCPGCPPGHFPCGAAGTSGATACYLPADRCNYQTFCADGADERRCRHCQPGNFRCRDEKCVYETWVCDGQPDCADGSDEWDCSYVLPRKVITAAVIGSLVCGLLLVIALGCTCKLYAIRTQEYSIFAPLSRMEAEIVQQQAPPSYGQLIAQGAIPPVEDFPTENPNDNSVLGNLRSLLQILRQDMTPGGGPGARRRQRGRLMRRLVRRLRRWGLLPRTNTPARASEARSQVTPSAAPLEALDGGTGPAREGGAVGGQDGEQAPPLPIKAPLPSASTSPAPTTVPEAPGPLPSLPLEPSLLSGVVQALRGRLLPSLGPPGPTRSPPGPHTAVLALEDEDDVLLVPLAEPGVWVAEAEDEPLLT

[2] = compound: NC(=O)c1cnc(N[C@@H]2CCCC[C@@H]2N)nc1Nc1cccc(-n2nccn2)c1
Method in brief: as §1

[3] = compound: NC1(c2ccc(-c3nc4ccn5c(=O)[nH]nc5c4cc3-c3ccccc3)cc2)CCC1
Method in brief: as §1

[4] = compound: NCC(=O)Nc1ccc(-n2nc(C(F)(F)F)cc2-c2ccc3c(ccc4ccccc43)c2)cc1
Method in brief: as §1

[5] = compound: Nc1ccccc1NC(=O)c1ccc(CNC(=O)OCc2cccnc2)cc1 [entinostat]
Method in brief: as §1

[6] = compound: O=C(CCCCCCC(=O)Nc1ccccc1)NO [vorinostat]
Method in brief: as §1

[7] = compound: O=C(CCCCCCNC(=O)c1cnc(N(c2ccccc2)c2ccccc2Cl)nc1)NO [citarinostat]
Method in brief: as §1

[8] = compound: O=C(O)c1ccc2c(c1)nc(Nc1cccc(Cl)c1)c1ccncc12 [silmitasertib]
Method in brief: as §1

[9] = compound: O=C1NC(=O)C(c2cnc3ccccn23)=C1c1cn2c3c(cc(F)cc13)CN(C(=O)N1CCCCC1)CC2
Method in brief: as §1

[10] = compound: c1cc(OCCN2CCCCC2)cc(-c2n[nH]c3ccc(-c4nnc[nH]4)cc23)c1
Method in brief: as §1

[11] = compound: c1cn2cc(-c3ccc4cn[nH]c4c3)nc(Nc3ccc(N4CCOCC4)cc3)c2n1 [entospletinib]
Method in brief: as §1

Measured: log2 fold change

LAGE3 (UniProt Q14657)
inactive: [1] -0.048 | [2] 0.003 | [3] -0.033 | [4] 0 | [5] 0.094 | [6] -0.132 | [7] -0.003 | [8] -0.057 | [9] -0.08 | [10] -0.042 | [11] -0.01

LMAN2L isoform 2 (UniProt Q9H0V9)
inactive: [1] 0.004 | [2] -0.001 | [3] -0.055 | [4] -0.007 | [5] -0.009 | [6] 0.016 | [7] 0.017 | [8] 0.048 | [9] -0.035 | [10] -0.095 | [11] 0.017

LACTB (UniProt P83111)
inactive: [1] 0.194 | [2] 0.037 | [3] 0.029 | [4] -0.159 | [5] 0.065 | [6] -0.016 | [7] -0.09 | [8] 0.103 | [9] 0.06 | [10] -0.08 | [11] -0.017

LCP1 (UniProt P13796)
inactive: [1] -0.032 | [2] -0.017 | [3] 0.016 | [4] 0.007 | [5] -0.035 | [6] -0.011 | [7] 0.005 | [8] 0.001 | [9] -0.073 | [10] -0.022 | [11] -0.02

LACTB2 (UniProt Q53H82)
inactive: [1] 0.005 | [2] -0.007 | [3] 0.02 | [4] 0.025 | [5] -0.006 | [6] -0.049 | [7] 0.021 | [8] -0.017 | [9] -0.008 | [10] 0.03 | [11] -0.004

LHPP (UniProt Q9H008)
inactive: [1] -0.075 | [2] 0.04 | [3] -0.01 | [4] -0.006 | [5] -0.021 | [6] -0.024 | [7] -0.022 | [8] 0.02 | [9] -0.072 | [10] 0.087 | [11] -0.109

LARS2 (UniProt Q15031)
inactive: [1] -0.022 | [2] -0.017 | [3] -0.151 | [4] -0.027 | [5] 0.028 | [6] 0.056 | [7] 0.082 | [8] 0.009 | [9] -0.09 | [10] -0.024 | [11] -0.017

L3HYPDH (UniProt Q96EM0)
inactive: [1] -0.035 | [2] 0 | [3] -0.096 | [4] 0.031 | [5] 0.004 | [6] 0.023 | [7] 0.018 | [8] -0.001 | [9] 0.009 | [10] -0.047 | [11] 0.054

LAMTOR1 (UniProt Q6IAA8)
inactive: [1] 0.019 | [2] -0.108 | [3] -0.255 | [4] -0.006 | [5] 0.088 | [6] -0.034 | [7] 0.029 | [8] -0.09 | [9] -0.122 | [10] 0.126 | [11] -0.06

LETM1 (UniProt O95202)
inactive: [1] -0.002 | [2] -0.028 | [3] -0.06 | [4] -0.06 | [5] 0.027 | [6] 0.052 | [7] 0.035 | [8] -0.016 | [9] -0.034 | [10] 0 | [11] -0.04

LAMP1 (UniProt P11279)
inactive: [1] -0.005 | [2] -0.004 | [3] 0.062 | [4] 0.036 | [5] -0.04 | [6] -0.07 | [7] -0.006 | [8] 0.056 | [9] 0.009 | [10] -0.006 | [11] 0.005

LIG1 (UniProt P18858)
inactive: [1] 0.027 | [2] -0.14 | [3] -0.179 | [4] -0.09 | [5] 0.077 | [6] 0.085 | [7] 0.086 | [8] 0.041 | [9] -0.183 | [10] 0.012 | [11] -0.089

LAMTOR5 (UniProt O43504)
inactive: [1] 0.141 | [2] 0.101 | [3] -0.091 | [4] -0.002 | [5] 0.099 | [6] 0.018 | [7] 0.041 | [8] 0.029 | [9] -0.025 | [10] -0.034 | [11] -0.032

LMAN2 (UniProt Q12907)
inactive: [1] -0.034 | [2] -0.035 | [3] -0.098 | [4] -0.019 | [5] 0.007 | [6] 0.017 | [7] 0.037 | [8] 0.021 | [9] -0.032 | [10] -0.034 | [11] 0.005

LIMS1 isoform 3 (UniProt P48059)
inactive: [1] -0.024 | [2] -0.002 | [3] 0.057 | [4] 0.041 | [5] -0.015 | [6] -0.005 | [7] -0.032 | [8] 0.007 | [9] -0.014 | [10] -0.039 | [11] -0.025

LPCAT2 (UniProt Q7L5N7)
inactive: [1] -0.027 | [2] -0.106 | [3] -0.3 | [4] -0.046 | [5] -0.034 | [6] 0.07 | [7] -0.001 | [8] 0.132 | [9] -0.041 | [10] 0.106 | [11] -0.027

LRRC57 (UniProt Q8N9N7)
inactive: [1] -0.03 | [2] 0.001 | [3] -0.08 | [4] -0.01 | [5] 0.013 | [6] -0.064 | [7] 0.022 | [8] -0.034 | [9] -0.038 | [10] 0.005 | [11] 0.052

LMO2 isoform 3 (UniProt P25791)
inactive: [1] 0.02 | [2] -0.044 | [3] 0.092 | [4] -0.145 | [5] -0.027 | [6] 0.033 | [7] -0.066 | [8] 0.083 | [9] 0.024 | [10] 0.089 | [11] 0.016

Two records drawn at random from those above, as already listed:
LETM1 (UniProt O95202)
inactive: [1] -0.002 | [2] -0.028 | [3] -0.06 | [4] -0.06 | [5] 0.027 | [6] 0.052 | [7] 0.035 | [8] -0.016 | [9] -0.034 | [10] 0 | [11] -0.04

LMO2 isoform 3 (UniProt P25791)
inactive: [1] 0.02 | [2] -0.044 | [3] 0.092 | [4] -0.145 | [5] -0.027 | [6] 0.033 | [7] -0.066 | [8] 0.083 | [9] 0.024 | [10] 0.089 | [11] 0.016

(continued)

LIN7C (UniProt Q9NUP9)
inactive: [1] -0.117 | [2] 0.002 | [3] -0.052 | [4] -0.012 | [5] 0.004 | [6] 0.027 | [7] 0.019 | [8] -0.045 | [9] -0.052 | [10] -0.06 | [11] 0.024

LAMTOR3 (UniProt Q9UHA4)
inactive: [1] 0.087 | [2] -0.238 | [3] -0.092 | [4] -0.096 | [5] 0.091 | [6] 0.017 | [7] 0.099 | [8] -0.023 | [9] -0.071 | [10] -0.063 | [11] -0.014

LRRC40 (UniProt Q9H9A6)
inactive: [1] -0.044 | [2] -0.065 | [3] -0.199 | [4] -0.07 | [5] 0.08 | [6] 0.048 | [7] -0.014 | [8] 0.04 | [9] -0.022 | [10] -0.124 | [11] 0.054

LRFN4 (UniProt Q6PJG9)
inactive: [1] -0.023 | [2] 0.019 | [3] -0.091 | [5] 0.113 | [6] -0.261 | [8] 0.111 | [9] -0.085

LRG1 (UniProt P02750)
inactive: [1] 0.102 | [3] -0.002 | [4] -0.142 | [5] -0.064 | [6] 0.028 | [7] 0.185 | [8] -0.061 | [9] 0.193 | [10] 0.014 | [11] 0

LIPT2 (UniProt A6NK58)
inactive: [1] 0.26 | [4] 0.046 | [5] -0.064 | [9] 0.113

LRP10 (UniProt Q7Z4F1)
inactive: [1] -0.329 | [2] 0.065 | [3] -0.29 | [5] 0.177 | [8] 0.33 | [9] 0.271

LIG3 (UniProt P49916)
inactive: [1] 0.019 | [2] 0.125 | [3] -0.024 | [5] -0.015 | [6] -0.102 | [8] -0.021

LDHA isoform 3 (UniProt P00338)
inactive: [1] 0.069 | [2] 0.015 | [3] 0.021 | [4] 0.046 | [5] -0.013 | [6] -0.005 | [7] 0.028 | [8] -0.052 | [9] -0.004 | [10] -0.029 | [11] -0.01

Reference: the supplement of paper PMC10849652
